For some assays here: Part of at least one peptide drawing is inferred or uncertain, most often the ends. At least one compound was matched to its structure with a doubt left. Starred links: 1 amine or outer side, 2 acyl side, 3 side chain; linkers in the order of their positions; H or OH if unused. Non-standard residues stand in square brackets, D forms with d. Residues, ends and D or L forms follow the SMILES beside them. *: point of attachment. X1 = CC(C)CC(C(=O)[*:2])[C@H](O)[C@H](CC(C)C)N[*:1]; Isobutyryl = CC(C)C(=O)*
Legend:
Assay type in all cases: biochemical
hog kidney renin = assay: Inhibition of hog kidney renin; conditions: I 10^-9; pH 7.3
Procedure: (§1) Assays were carried out in order to determine the inhibitory potency of the peptides of the present invention. One assay measured the inhibition of hog kidney renin, and was in accordance with the procedure described in Rich et al., J. Med. Chem. 23: 27, 1980, except that a pH of 7.3 was used. Another assay measured the inhibition of human kidney renin purified as described in Bangham, D. R., Robertson, I., Robinson, J. I. S., Robinson, C. J., and Tree, M., Clinical Science and Molecular Medicine, 48 (Supp. 2): 136s-159s (1975), and further purified by affinity chromatography on pepstatin-aminohexyl-Sepharase as described in Poe, M., Wu., J. K., Florance, J. R., Radkey, J. A., Bennett, C. D., and Hoogsteen, K., J. Biol. Chem. 258: 2209-2216 (1983). The assay was also in accordance with Poe et al. cited above. Further assays measured human plasma renin and dog plasma renin in accordance with procedures described in Boger et al., Nature, 303: 81-84 (1983).

human plasma renin = molecular target: T1, human plasma renin (Homo sapiens, UniProt P00797); assay: Human plasma renin assay; conditions: read-out: Renin Inhibition Human Plasma I50
T1 construct: Further assays measured human plasma renin and dog plasma renin; from tissue; host or cells: human plasma
T1 sequence (P00797 67-406): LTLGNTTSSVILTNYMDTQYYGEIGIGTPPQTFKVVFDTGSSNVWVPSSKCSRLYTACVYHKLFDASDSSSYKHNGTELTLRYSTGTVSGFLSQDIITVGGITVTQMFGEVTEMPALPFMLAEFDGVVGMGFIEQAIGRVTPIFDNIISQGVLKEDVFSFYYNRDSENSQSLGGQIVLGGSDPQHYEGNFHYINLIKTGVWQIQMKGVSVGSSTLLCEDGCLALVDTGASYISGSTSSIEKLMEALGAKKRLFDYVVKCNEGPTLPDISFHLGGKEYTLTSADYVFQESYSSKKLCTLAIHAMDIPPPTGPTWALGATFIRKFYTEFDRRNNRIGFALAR
Procedure: as §1

dog plasma renin = molecular target: T2, dog plasma renin (Canis lupus familiaris, UniProt Q6DYE7); assay: Dog plasma renin assay; conditions: read-out: Renin Inhibition Dog Plasma I50
T2 construct: Further assays measured human plasma renin and dog plasma renin; from tissue; host or cells: dog plasma
T2 sequence (Q6DYE7 66-403): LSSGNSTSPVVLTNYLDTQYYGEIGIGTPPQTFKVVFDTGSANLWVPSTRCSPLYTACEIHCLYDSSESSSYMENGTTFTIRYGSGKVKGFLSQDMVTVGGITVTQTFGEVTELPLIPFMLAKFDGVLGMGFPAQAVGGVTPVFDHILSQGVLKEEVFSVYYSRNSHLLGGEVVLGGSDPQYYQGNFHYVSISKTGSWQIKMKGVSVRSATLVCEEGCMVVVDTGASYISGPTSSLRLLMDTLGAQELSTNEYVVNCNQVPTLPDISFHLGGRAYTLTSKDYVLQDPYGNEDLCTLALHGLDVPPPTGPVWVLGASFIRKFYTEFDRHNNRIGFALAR
Procedure: as §1

human kidney renin = molecular target: T3, human kidney renin (Homo sapiens, UniProt P00797); assay: Inhibition of purified human kidney renin; conditions: dissociation constant of the inhibited enzyme inhibitor complex
T3 construct: human kidney renin purified as described in Bangham; from tissue; host or cells: human kidney
T3 sequence (P00797 67-406): T1 sequence (P00797 67-406)
Procedure: as §1
Results expressed as KI values refer to the dissociation constant of the inhibited enzyme inhibitor complex. This KI value was obatined as described above. Pepstatin was used as an active control.

| SMILES | Renin Inhibition Hog Kidney % I (hog kidney renin) | IC50 (human plasma renin) | IC50 (dog plasma renin) | Ki (human kidney renin) |
| --- | --- | --- | --- | --- |
| CC(C)C[C@H](NC(=O)[C@H](CC(C)C)[C@H](O)[C@H](Cc1ccccc1)NC(=O)[C@H](Cc1c[nH]cn1)NC(=O)[C@H](Cc1ccccc1)NC(=O)OC(C)(C)C)C(=O)NCc1ccccc1 [BOCPheHis(2- -i-Bu)AHPPALeu, tert-Butyloxycarbonyl-L-phenylalanyl-L-histidyl-4(S)-amino-3(S)-hydroxy-2(R)-iso-butyl-5-phenylpentanoyl-L-leucyl-benzylamide] | 90% | – | – | – |
| CC(C)CC[C@@H](C(=O)N[C@@H](CC(C)C)C(=O)NCc1ccccc1)[C@H](O)[C@H](Cc1ccccc1)NC(=O)[C@H](Cc1c[nH]cn1)NC(=O)[C@H](Cc1ccccc1)NC(=O)OC(C)(C)C [BOCPheHis(2- -i-Pent)AHPPALeu] | 72% | – | – | – |
| CC(C)CC(C(=O)N[C@@H](CC(C)C)C(=O)N[C@@H](Cc1ccccc1)C(N)=O)[C@H](O)[C@H](CC(C)C)NC(=O)[C@H](Cc1ccccc1)NC(=O)[C@H](Cc1ccccc1)NC(=O)[C@@H]1CCCN1C(=O)[C@H](Cc1c[nH]cn1)NC(=O)C(C)C (some centres unmarked) [IBUHisProPhePhe(2- -i-Bu)StaLeuPheNH2] (Isobutyryl-HPFF[X1]LF-NH2) | – | 33 nM | 27 nM | 0.77 nM |

Reference: US4663310A, “Renin inhibitors containing 2-substituted statine” (Merck & Co., Inc., priority 1984, dated 1987)
